The list shows a part of the results. These are further read-outs of the screen, such as a control signal, another cell line or another target. No call is given for them. The list favours compounds with an active or inconclusive main result. The note in brackets gives the kind of curve behind each potency; many fits are weak.
Test: qHTS Assay to Find Inhibitors of Chronic Active B-Cell Receptor Signaling
Conditions: ABC-DLBCL IkBa-CBG/CBR reporter, luminescence ratio (green luciferase fused to IkBa over red control in TMD8 lymphoma cells), 4 h; measured here: CBR red luminescence, cell number
Procedure, shortened: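 TMD8 human ABC-DLBCL cells with doxycycline-inducible IκBα–green luciferase fusion and unfused red luciferase, in 0.5% FBS medium; compounds up to 46 uM, 4 h at 37C. Green/red luminescence ratio, filter-overlap corrected, fitted to concentration-response curves.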

Compound	AC50
N=c1c[n+](N2CCOCC2)[n-]o1	8.91 µM [falling, partial curve, poor fit]
Cc1ccc(O)c(Nc2ncnc3ccccc23)c1	1.12 µM [rising, full curve, poor fit]
COC(=O)C1=C(C)N(c2ccc(F)cc2)/C(=C/c2ccc(O)cc2)C1=O	12.6 µM [falling, partial curve, poor fit]
NS(=O)(=O)c1ccc(NC(=S)Nc2ccc(Br)c(Cl)c2)cc1	8.91 µM [rising, partial curve, poor fit]
CC1(C)SC(=S)N(Cc2ccc3c(c2)OCO3)C1N(O)C(=O)NC1CCCCC1 (stereo not drawn)	8.91 µM [falling, partial curve]
O=C(N/N=C/c1ccc(F)cc1)c1cccc(NC(=O)c2ccc(F)cc2)c1	17.8 µM [falling, partial curve, poor fit]
Cc1ccc(S(=O)(=O)N2[C@@H](c3ccc(C(C)(C)C)cc3)C(C(=O)O)=CC[C@H]2c2cccs2)cc1	3.26 µM [rising, partial curve, poor fit]
O=C(NCC(c1ccc(F)cc1)N1CCOCC1)c1cc(F)c(F)c(F)c1F (stereo not drawn)	12.6 µM [falling, single point]
CCCc1nnc(SCC(=O)N2CCCCC2C)n1CCOC (stereo not drawn)	11.2 µM [rising, single point]
Cc1ccc(NS(=O)(=O)c2ccc3c(c2)oc(=O)n3C)cc1C	17.8 µM [falling, single point]
Cc1ccc(-c2cc(C(=O)NCc3ccc4c(c3)OCO4)no2)cc1	0.0326 µM [rising, full curve, poor fit]
Cc1cccc2sc(NC(=O)C3=NN(c4ccccc4)C(=O)CC3)nc12	2.06 µM [falling, partial curve]
CCOc1ccc(S(=O)(=O)Nc2ccc(C(=O)NCC(c3ccco3)N3CCCCC3)cc2)cc1 (stereo not drawn)	16.4 µM [falling, single point]
Cc1ccc(C(=O)COC(=O)c2cccs2)cc1	20.6 µM [falling, single point]
COc1ccccc1OCCOCCOc1ccc(C)cc1Br	18.4 µM [rising, partial curve, poor fit]
O=c1cc(-c2ccc(O)cc2)oc2ccc3ccccc3c12	23.1 µM [falling, single point]
Cn1c2ccccc2c(=O)c2cc(C#Cc3ccc(N)cc3)ccc21	11.2 µM [rising, single point]
N#CC1(c2ccccc2)CCCN1C(=O)c1ccccc1Cl (stereo not drawn)	6.51 µM [rising, partial curve, poor fit]

At a glance, some entries already given.
Compound	AC50
O=c1cc(-c2ccc(O)cc2)oc2ccc3ccccc3c12	23.1 µM [falling, single point]
Cn1c2ccccc2c(=O)c2cc(C#Cc3ccc(N)cc3)ccc21	11.2 µM [rising, single point]

— PubChem BioAssay AID493014 (National Center for Advancing Translational Sciences (NCATS), 2011)
